The series concerns the target H-NS (Escherichia coli) (UniProt P0ACF8). The series can be described thus: EMSA. Conditions: apparent Kd, 200 pM DNA; EMSA: H-NS 0-500 nM, 200 pM 32P-labelled DNA, 4% polyacrylamide gel run at 4 C; recombinant protein; label: 5'-32P; probe letters rebuilt from the primers and the genome. A general note: A gel shift assay detects complexes by their altered migration in electrophoresis.

By UniProt entry, the sequences of proteins in these tests, tags left out. Where a name states a change or a piece, a line headed by the entry shows the natural chain unless it says otherwise.
UniProt P0ACF8: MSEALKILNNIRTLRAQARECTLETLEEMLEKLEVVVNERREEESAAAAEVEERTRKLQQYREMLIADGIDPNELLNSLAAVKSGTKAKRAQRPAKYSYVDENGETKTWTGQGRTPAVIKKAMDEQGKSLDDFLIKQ

The exact form of at least one protein or probe is not confirmed.

As for “GTTTGGCGAACTCTTGGGTAAGGTTAACAATGTCCTTTCAATCAGTTCAGCAAGGTCCAAAGCGTTAACAGCTTCCATGATGAAATAAAAAAAAGCCTGGCAAGGAGCCAGGCTGCACAAAAGAGCGGGTTTGTATTCCGCATCCAATCAATCAAGAAGGAGTATAGCACACAGGTACTGAAGTGAAAAAATGTGATTCGCGATAAACAAAATATCTATCATTGCTCTAATTGATTGCTATAATTGAGCCGCAGTTTTTGTCAACTACGAAGACGTTGCCATTACTTCACTCCTTGACATCATTGGCGGCCATTAGGCCGCCTTTTTTTTGCCATATGAAAACAATCGAACAAAAAATTGAACAGTGCCGCAAGTGGCAGAAGGCAGCCAGAGAACGAGCGATCG (double strand) [ref 5' regulatory region]”, the Kd is 10 nM.

The values are drawn from PMC4713147.
